From publication doi:10.1101/042119
Results are given in words; binding and its absence hold for the method and conditions named. In cells and extracts the contact can be indirect. Some entries that bind do so weakly or less than the wild type. Tags and fused reporters may be left off the sequences shown.

Protein sequences, listed by entry. Tags and fused reporters are not part of them.
UniProt Q13263: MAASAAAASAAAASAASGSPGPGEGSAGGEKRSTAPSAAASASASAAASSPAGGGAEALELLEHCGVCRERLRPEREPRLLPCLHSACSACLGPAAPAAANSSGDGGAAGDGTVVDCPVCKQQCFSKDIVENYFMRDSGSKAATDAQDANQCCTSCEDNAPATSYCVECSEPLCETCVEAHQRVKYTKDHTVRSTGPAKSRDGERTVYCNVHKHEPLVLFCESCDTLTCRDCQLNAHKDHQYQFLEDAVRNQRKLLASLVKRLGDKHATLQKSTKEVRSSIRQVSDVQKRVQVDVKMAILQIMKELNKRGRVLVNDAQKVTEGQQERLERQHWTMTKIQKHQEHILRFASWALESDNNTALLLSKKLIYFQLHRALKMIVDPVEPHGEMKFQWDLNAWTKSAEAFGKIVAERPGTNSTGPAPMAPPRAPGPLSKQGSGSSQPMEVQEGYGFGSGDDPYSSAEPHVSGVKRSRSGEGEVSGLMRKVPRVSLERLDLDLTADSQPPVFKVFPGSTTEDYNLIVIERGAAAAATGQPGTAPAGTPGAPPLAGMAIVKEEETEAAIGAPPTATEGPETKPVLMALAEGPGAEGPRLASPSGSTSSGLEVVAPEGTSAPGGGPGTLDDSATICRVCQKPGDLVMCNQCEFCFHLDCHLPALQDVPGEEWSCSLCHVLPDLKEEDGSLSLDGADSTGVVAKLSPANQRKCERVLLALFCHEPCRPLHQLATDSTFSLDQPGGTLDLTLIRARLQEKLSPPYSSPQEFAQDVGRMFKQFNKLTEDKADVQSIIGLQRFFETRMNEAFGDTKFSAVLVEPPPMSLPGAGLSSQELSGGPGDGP

Target: T1, EGFP-Wip1 (UniProt O15297)
T1 sequence: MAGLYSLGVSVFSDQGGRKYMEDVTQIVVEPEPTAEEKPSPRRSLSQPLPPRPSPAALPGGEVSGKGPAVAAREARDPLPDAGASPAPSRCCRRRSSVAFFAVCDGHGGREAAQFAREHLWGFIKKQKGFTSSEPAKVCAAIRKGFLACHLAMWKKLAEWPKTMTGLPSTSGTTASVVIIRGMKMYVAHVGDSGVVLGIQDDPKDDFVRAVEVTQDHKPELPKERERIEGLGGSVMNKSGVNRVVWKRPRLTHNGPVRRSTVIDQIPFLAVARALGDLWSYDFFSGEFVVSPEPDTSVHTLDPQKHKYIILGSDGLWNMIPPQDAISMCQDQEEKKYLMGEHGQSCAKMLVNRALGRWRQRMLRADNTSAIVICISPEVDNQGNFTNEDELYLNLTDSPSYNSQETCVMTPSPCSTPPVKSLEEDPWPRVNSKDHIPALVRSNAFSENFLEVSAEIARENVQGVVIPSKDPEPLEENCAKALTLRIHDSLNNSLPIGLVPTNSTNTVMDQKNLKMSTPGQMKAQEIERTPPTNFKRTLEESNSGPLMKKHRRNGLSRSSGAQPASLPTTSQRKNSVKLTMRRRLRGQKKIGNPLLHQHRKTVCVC
Test: co-IP

binding: binds
Substance: Endogenous KAP1 (from UniProt Q13263 1-835)
